{
  "source": "paper PMC9369007",
  "about": "(International Journal of Molecular Sciences, 2022)",
  "data": [
    {"tested_on": "MCF-7 cells", "assay": "MTT cytotoxicity assay, MCF-7", "settings": "among MCF-7, HCT116 and HepG2 cell lines", "values": [
      {"smiles": "S=c1[nH]nc(-c2cc(-c3n[nH]c(=S)n3C3CCCCC3)cc(-c3n[nH]c(=S)n3C3CCCCC3)c2)n1C1CCCCC1", "note": "[Compound 20, 3,3′,3″-(benzene-1,3,5-triyl)tris(4-cyclohexyl-1H-1,2,4-triazole-5(4H)-thione)]", "Selectivity": "HepG2 Selective"},
      {"smiles": "S=c1[nH]nc(-c2cc(-c3n[nH]c(=S)n3-c3ccccc3)cc(-c3n[nH]c(=S)n3-c3ccccc3)c2)n1-c1ccccc1", "note": "[Compound 23, 3,3′,3″-(benzene-1,3,5-triyl)tris(4-phenyl-1H-1,2,4-triazole-5(4H)-thione)]", "Selectivity": "HCT116/HepG2 Selective"},
      {"smiles": "CCNc1nnc(-c2cc(-c3nnc(NCC)s3)cc(-c3nnc(NCC)s3)c2)s1", "note": "[Compound 25, 5,5′,5″-(benzene-1,3,5-triyl)tris(N-ethyl-1,3,4-thiadiazol-2-amine)]", "Selectivity": "HepG2 Selective"},
      {"smiles": "CC(=O)O[C@H]1C(=O)[C@@]2(C)[C@H]([C@H](OC(=O)c3ccccc3)[C@]3(O)C[C@H](OC(=O)[C@H](O)[C@@H](NC(=O)c4ccccc4)c4ccccc4)C(C)=C1C3(C)C)[C@]1(OC(C)=O)CO[C@@H]1C[C@@H]2O", "note": "[Taxol, reference compound]", "Selectivity": "Nonselective"},
      {"smiles": "CCn1c(-c2cc(-c3n[nH]c(=S)n3CC)cc(-c3n[nH]c(=S)n3CC)c2)n[nH]c1=S", "note": "[Compound 19, 3,3′,3″-(benzene-1,3,5-triyl)tris(4-ethyl-1H-1,2,4-triazole-5(4H)-thione)]", "Selectivity": "MCF-7 Selective"},
      {"smiles": "C=CCNc1nnc(-c2cc(-c3nnc(NCC=C)s3)cc(-c3nnc(NCC=C)s3)c2)s1", "note": "[Compound 27, 5,5′,5″-(benzene-1,3,5-triyl)tris(N-allyl-1,3,4-thiadiazol-2-amine)]", "Selectivity": "MCF-7 Selective"},
      {"smiles": "c1ccc(Nc2nnc(-c3cc(-c4nnc(Nc5ccccc5)s4)cc(-c4nnc(Nc5ccccc5)s4)c3)s2)cc1", "note": "[Compound 28, 5,5′,5″-(benzene-1,3,5-triyl)tris(N-phenyl-1,3,4-thiadiazol-2-amine)]", "Selectivity": "MCF-7 Selective"},
      {"smiles": "S=c1[nH]nc(-c2cc(-c3n[nH]c(=S)n3Cc3ccccc3)cc(-c3n[nH]c(=S)n3Cc3ccccc3)c2)n1Cc1ccccc1", "note": "[Compound 22, 3,3′,3″-(benzene-1,3,5-triyl)tris(4-benzyl-1H-1,2,4-triazole-5(4H)-thione)]", "Selectivity": "Nonselective"},
      {"smiles": "C=CCn1c(-c2cc(-c3n[nH]c(=S)n3CC=C)cc(-c3n[nH]c(=S)n3CC=C)c2)n[nH]c1=S", "note": "[Compound 21, 3,3′,3″-(benzene-1,3,5-triyl)tris(4-allyl-1H-1,2,4-triazole-5(4H)-thione)]", "Selectivity": "Nonselective"}
    ]}
  ]
}
